From the supplement of paper PMC8728848
The list shows a part of the results.

Experiments:
Test in all cases: glycan array binding signal (z-score within array); higher = stronger binding
Details in all cases: glycan notation: IUPAC condensed, linker removed
[1] = biological target: Fuc(a1-2)Gal6S(b1-3)GlcNAc
In short: (§1)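 The Consortium for Functional Glycomics database supplied 3228 glycan arrays, of which those lacking an available protein sequence were dropped. The binding signal, a within-array Z-score, was averaged across arrays of the same protein sequence and across linkers. Negative scores can be read as non-binding.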

[2] = biological target: Fuc(a1-2)Gal6S(b1-3)GlcNAc6S
In short: as §1

Fuc(a1-2)Gal6S(b1-4)Glc = biological target: Fuc(a1-2)Gal6S(b1-4)Glc
In short: as §1

[3] = biological target: Fuc(a1-2)Gal6S(b1-4)Glc6S
In short: as §1

Fuc(a1-2)[Gal(a1-3)]Gal = biological target: Fuc(a1-2)[Gal(a1-3)]Gal
In short: as §1

[4] = biological target: Fuc(a1-2)[Gal(a1-3)]Gal(b1-3)GalNAc
In short: as §1

[5] = biological target: Fuc(a1-2)[Gal(a1-3)]Gal(b1-3)GalNAc(b1-3)Gal(a1-4)Gal(b1-4)Glc
In short: as §1

[6] = biological target: Fuc(a1-2)[Gal(a1-3)]Gal(b1-3)GlcNAc
In short: as §1

[7] = biological target: Fuc(a1-2)[Gal(a1-3)]Gal(b1-3)GlcNAc(b1-2)Man(a1-3)[Fuc(a1-2)[Gal(a1-3)]Gal(b1-3)GlcNAc(b1-2)Man(a1-6)]Man(b1-4)GlcNAc(b1-4)GlcNAc
In short: as §1

[8] = biological target: Fuc(a1-2)[Gal(a1-3)]Gal(b1-3)GlcNAc(b1-2)Man(a1-3)[Fuc(a1-2)[Gal(a1-3)]Gal(b1-3)GlcNAc(b1-2)Man(a1-6)]Man(b1-4)GlcNAc(b1-4)[Fuc(a1-6)]GlcNAc
In short: as §1

[9] = biological target: Fuc(a1-2)[Gal(a1-3)]Gal(b1-3)GlcNAc(b1-3)GalNAc
In short: as §1

[10] = biological target: Fuc(a1-2)[Gal(a1-3)]Gal(b1-3)GlcNAc(b1-6)GalNAc
In short: as §1

[11] = biological target: Fuc(a1-2)[Gal(a1-3)]Gal(b1-4)Glc
In short: as §1

[12] = biological target: Fuc(a1-2)[Gal(a1-3)]Gal(b1-4)GlcNAc
In short: as §1

[13] = biological target: Fuc(a1-2)[Gal(a1-3)]Gal(b1-4)GlcNAc(b1-2)Man
In short: as §1

[14] = biological target: Fuc(a1-2)[Gal(a1-3)]Gal(b1-4)GlcNAc(b1-2)Man(a1-3)[Fuc(a1-2)[Gal(a1-3)]Gal(b1-4)GlcNAc(b1-2)Man(a1-6)]Man(b1-4)GlcNAc(b1-4)GlcNAc
In short: as §1

[15] = biological target: Fuc(a1-2)[Gal(a1-3)]Gal(b1-4)GlcNAc(b1-2)Man(a1-3)[Fuc(a1-2)[Gal(a1-3)]Gal(b1-4)GlcNAc(b1-2)Man(a1-6)]Man(b1-4)GlcNAc(b1-4)[Fuc(a1-6)]GlcNAc
In short: as §1

[16] = biological target: Fuc(a1-2)[Gal(a1-3)]Gal(b1-4)GlcNAc(b1-3)GalNAc
In short: as §1

[17] = biological target: Fuc(a1-2)[Gal(a1-3)]Gal(b1-4)GlcNAc(b1-3)[Fuc(a1-2)[Gal(a1-3)]Gal(b1-4)GlcNAc(b1-6)]GalNAc
In short: as §1

[18] = biological target: Fuc(a1-2)[Gal(a1-3)]Gal(b1-4)GlcNAc(b1-6)GalNAc
In short: as §1

[19] = biological target: Fuc(a1-2)[Gal(a1-3)]Gal(b1-4)[Fuc(a1-3)]Glc
In short: as §1

[20] = biological target: Fuc(a1-2)[Gal(a1-3)]Gal(b1-4)[Fuc(a1-3)]GlcNAc
In short: as §1

[21] = biological target: Fuc(a1-2)[Gal(a1-3)]Gal(b1-4)[Fuc(a1-3)]GlcNAc(b1-3)GalNAc
In short: as §1

[22] = biological target: Fuc(a1-2)[Gal(a1-4)]Gal(b1-4)GlcNAc
In short: as §1

[23] = biological target: Fuc(a1-2)[GalNAc(a1-3)]Gal
In short: as §1

[24] = biological target: Fuc(a1-2)[GalNAc(a1-3)]Gal(b1-3)GalNAc(a1-3)[Fuc(a1-2)]Gal(b1-4)GlcNAc
In short: as §1

[25] = biological target: Fuc(a1-2)[GalNAc(a1-3)]Gal(b1-3)GalNAc(b1-3)Gal(a1-4)Gal(b1-4)Glc
In short: as §1

[26] = biological target: Fuc(a1-2)[GalNAc(a1-3)]Gal(b1-3)GlcNAc
In short: as §1

[27] = biological target: Fuc(a1-2)[GalNAc(a1-3)]Gal(b1-3)GlcNAc(b1-2)Man(a1-3)[Fuc(a1-2)[GalNAc(a1-3)]Gal(b1-3)GlcNAc(b1-2)Man(a1-6)]Man(b1-4)GlcNAc(b1-4)GlcNAc
In short: as §1

[28] = biological target: Fuc(a1-2)[GalNAc(a1-3)]Gal(b1-3)GlcNAc(b1-2)Man(a1-3)[Fuc(a1-2)[GalNAc(a1-3)]Gal(b1-3)GlcNAc(b1-2)Man(a1-6)]Man(b1-4)GlcNAc(b1-4)[Fuc(a1-6)]GlcNAc
In short: as §1

[29] = biological target: Fuc(a1-2)[GalNAc(a1-3)]Gal(b1-3)GlcNAc(b1-3)GalNAc
In short: as §1

[30] = biological target: Fuc(a1-2)[GalNAc(a1-3)]Gal(b1-3)GlcNAc(b1-6)GalNAc
In short: as §1

[31] = biological target: Fuc(a1-2)[GalNAc(a1-3)]Gal(b1-4)Glc
In short: as §1

[32] = biological target: Fuc(a1-2)[GalNAc(a1-3)]Gal(b1-4)GlcNAc
In short: as §1

[33] = biological target: Fuc(a1-2)[GalNAc(a1-3)]Gal(b1-4)GlcNAc(b1-2)Man
In short: as §1

[34] = biological target: Fuc(a1-2)[GalNAc(a1-3)]Gal(b1-4)GlcNAc(b1-2)Man(a1-3)[Fuc(a1-2)[GalNAc(a1-3)]Gal(b1-4)GlcNAc(b1-2)Man(a1-6)]Man(b1-4)GlcNAc(b1-4)GlcNAc
In short: as §1

[35] = biological target: Fuc(a1-2)[GalNAc(a1-3)]Gal(b1-4)GlcNAc(b1-2)Man(a1-3)[Fuc(a1-2)[GalNAc(a1-3)]Gal(b1-4)GlcNAc(b1-2)Man(a1-6)]Man(b1-4)GlcNAc(b1-4)[Fuc(a1-6)]GlcNAc
In short: as §1

[36] = biological target: Fuc(a1-2)[GalNAc(a1-3)]Gal(b1-4)GlcNAc(b1-3)Gal(b1-4)GlcNAc
In short: as §1

[37] = biological target: Fuc(a1-2)[GalNAc(a1-3)]Gal(b1-4)GlcNAc(b1-3)Gal(b1-4)GlcNAc(b1-3)Gal(b1-4)GlcNAc
In short: as §1

[38] = biological target: Fuc(a1-2)[GalNAc(a1-3)]Gal(b1-4)GlcNAc(b1-3)GalNAc
In short: as §1

[39] = biological target: Fuc(a1-2)[GalNAc(a1-3)]Gal(b1-4)GlcNAc(b1-3)[Fuc(a1-2)[GalNAc(a1-3)]Gal(b1-4)GlcNAc(b1-6)]GalNAc
In short: as §1

[40] = biological target: Fuc(a1-2)[GalNAc(a1-3)]Gal(b1-4)GlcNAc(b1-6)GalNAc
In short: as §1

[41] = biological target: Fuc(a1-2)[GalNAc(a1-3)]Gal(b1-4)[Fuc(a1-3)]GlcNAc
In short: as §1

[42] = biological target: Fuc(a1-2)[GalNAc(a1-3)]Gal(b1-4)[Fuc(a1-3)]GlcNAc(b1-3)GalNAc
In short: as §1

[43] = biological target: Fuc(a1-2)[GalNAc(a1-4)]Gal(b1-4)GlcNAc
In short: as §1

B1: Actd5 (Actinidia), P84527 (protein)
chain: ISSCNGPCRDLNDCDGQLICIKGKCNDDPQVGTHICRGTTHSHQPGGCKPSGTLTCRGKSYPTYDCSPPVTSSTPAKLTNNDFSEGGDDGGPSECDESYHNNNERIVALSTGWYNGGSRCGKMIRITASNGKSVSAKVVDECDSRHGCDKEHAGQPPCRNNIVDGSNAVWSALGLDKNVGVVDITWSMA
[1]
  glycan array binding signal (z-score): 0.034
[2]
  glycan array binding signal (z-score): 0.319
Fuc(a1-2)Gal6S(b1-4)Glc
  glycan array binding signal (z-score): -0.725
[3]
  glycan array binding signal (z-score): -1.15
Fuc(a1-2)[Gal(a1-3)]Gal
  glycan array binding signal (z-score): -0.828
[4]
  glycan array binding signal (z-score): 0.128
[5]
  glycan array binding signal (z-score): 0.089
[6]
  glycan array binding signal (z-score): 0.298
[7]
  glycan array binding signal (z-score): -0.123
[8]
  glycan array binding signal (z-score): 1.77
[9]
  glycan array binding signal (z-score): -0.885
[10]
  glycan array binding signal (z-score): 0.274
[11]
  glycan array binding signal (z-score): 0.887
[12]
  glycan array binding signal (z-score): 0.12
[13]
  glycan array binding signal (z-score): 0.103
[14]
  glycan array binding signal (z-score): -0.803
[15]
  glycan array binding signal (z-score): 0.194
[16]
  glycan array binding signal (z-score): -0.186
[17]
  glycan array binding signal (z-score): 0.322
[18]
  glycan array binding signal (z-score): -0.272
[19]
  glycan array binding signal (z-score): 0.062
[20]
  glycan array binding signal (z-score): 0.914
[21]
  glycan array binding signal (z-score): 0.082
[22]
  glycan array binding signal (z-score): 1.45
[23]
  glycan array binding signal (z-score): -0.602
[24]
  glycan array binding signal (z-score): 0.442
[25]
  glycan array binding signal (z-score): -0.038
[26]
  glycan array binding signal (z-score): 0.172
[27]
  glycan array binding signal (z-score): 0.017
[28]
  glycan array binding signal (z-score): 1.21
[29]
  glycan array binding signal (z-score): 0.787
[30]
  glycan array binding signal (z-score): -0.839
[31]
  glycan array binding signal (z-score): 0.588
[32]
  glycan array binding signal (z-score): -0.714
[33]
  glycan array binding signal (z-score): -0.868
[34]
  glycan array binding signal (z-score): -0.357
[35]
  glycan array binding signal (z-score): 0.283
[36]
  glycan array binding signal (z-score): -0.223
[37]
  glycan array binding signal (z-score): 1.72
[38]
  glycan array binding signal (z-score): -0.539
[39]
  glycan array binding signal (z-score): 0.097
[40]
  glycan array binding signal (z-score): -0.865
[41]
  glycan array binding signal (z-score): -0.269
[42]
  glycan array binding signal (z-score): -0.04
[43]
  glycan array binding signal (z-score): -1.4
